Reference: article PMC2323224
No constants are given. Whether binding was seen depends on the method and setting. Binding calls can cover weak binding; strength is not graded here.

Amino acid sequences for entries named in this document (tags omitted). A change or cut given only in a name is not applied to a line headed by its entry.
UniProt P96747: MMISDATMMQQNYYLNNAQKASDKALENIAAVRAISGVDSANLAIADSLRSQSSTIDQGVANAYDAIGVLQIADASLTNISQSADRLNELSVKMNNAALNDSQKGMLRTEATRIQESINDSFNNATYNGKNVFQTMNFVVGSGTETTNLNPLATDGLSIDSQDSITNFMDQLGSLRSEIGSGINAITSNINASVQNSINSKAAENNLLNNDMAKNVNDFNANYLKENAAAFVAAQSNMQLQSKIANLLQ

How the values were obtained:
Test in all cases: two-hybrid; LexA-based yeast two-hybrid; full length ORFs as LexA BD fusions (MAL62 promoter, strain Y309) mated with AD fusions (GAL1 promoter, strain RFY231); two-phase pooled matrix screen plus a library screen of 94 BD strains; LEU2 and lacZ reporters, background-corrected combined score >= 1; positives retested in one-on-one matings
[1] = molecular target: T1, FlaA (C. jejuni NCTC11168) (UniProt P56963)
T1 sequence: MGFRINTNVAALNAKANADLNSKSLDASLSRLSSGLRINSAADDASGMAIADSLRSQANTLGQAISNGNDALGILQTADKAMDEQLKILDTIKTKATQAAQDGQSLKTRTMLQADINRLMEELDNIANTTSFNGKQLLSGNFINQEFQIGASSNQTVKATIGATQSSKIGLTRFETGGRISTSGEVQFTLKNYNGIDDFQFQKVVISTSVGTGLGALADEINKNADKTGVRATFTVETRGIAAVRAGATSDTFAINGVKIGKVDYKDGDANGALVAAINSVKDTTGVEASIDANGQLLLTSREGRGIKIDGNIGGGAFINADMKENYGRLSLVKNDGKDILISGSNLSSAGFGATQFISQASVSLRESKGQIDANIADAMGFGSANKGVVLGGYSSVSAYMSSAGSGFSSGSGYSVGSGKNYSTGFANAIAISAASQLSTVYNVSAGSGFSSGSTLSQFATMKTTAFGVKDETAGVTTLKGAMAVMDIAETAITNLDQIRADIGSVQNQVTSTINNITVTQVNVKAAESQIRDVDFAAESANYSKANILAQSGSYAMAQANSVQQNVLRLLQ

[2] = molecular target: FlaC (C. jejuni NCTC11168) (UniProt P96747)
[3] = molecular target: T2, PyrC2 (C. jejuni NCTC11168) (UniProt Q0P961)
T2 sequence: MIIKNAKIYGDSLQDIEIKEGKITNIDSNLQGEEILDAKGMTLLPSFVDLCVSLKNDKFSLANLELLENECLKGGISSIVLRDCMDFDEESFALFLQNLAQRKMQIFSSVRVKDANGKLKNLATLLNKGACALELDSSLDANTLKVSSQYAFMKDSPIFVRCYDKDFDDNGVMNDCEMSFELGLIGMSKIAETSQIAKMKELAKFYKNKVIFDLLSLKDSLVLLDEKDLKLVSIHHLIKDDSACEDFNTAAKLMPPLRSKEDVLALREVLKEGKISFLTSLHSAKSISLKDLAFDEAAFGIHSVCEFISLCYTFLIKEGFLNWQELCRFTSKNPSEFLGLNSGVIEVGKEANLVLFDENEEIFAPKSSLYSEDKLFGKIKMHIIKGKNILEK

[4] = molecular target: Cj0643 (C. jejuni NCTC11168) (UniProt Q0PAM5)
[5] = molecular target: Cj0240c (C. jejuni NCTC11168) (UniProt Q0PBR4)

With FliS (from UniProt Q0PAW7) the binding [1] was “binds” and the binding [2] was “binds”.

In the case of PyrB (C. jejuni NCTC11168), the binding [3] is reported as “binds”.

B1: CheA (protein, UniProt Q0PBM2 1-769)
chain: MEDMQEILEDFLVEAFELVEQIDHDLVELESNPEDLELLNRIFRVAHTVKGSSSFLNFDVLTKLTHHMEDVLNKARHGELKITPDIMDVVLESIDRMKTLLNSIRDNGNDTAIGMDIEPICARLTAISEGESPVVATDSNEKSIPQAELEAPKQEIATPEPEVDVNQLSDSEVEAEIERLLKVRKAEDQARRAQKKQTTNAAPKPTNNTANKPTESGEKKVPASGSNASSMDQTIRVEVKRLDHLMNLIGELVLGKNRLLKIYDDVEERYEGEKFLEELNQVVSQLSIIITDVQLAVMKTRMQPIAKVFNKFPRVVRDLSRELGKQIELEITGEETELDKSIVEEIGDPIMHMIRNSCDHGVEDPATRAANGKPEKGIVQLKAYNEGNHIVVEITDDGKGLDPNGLKAKAIEKNLITEREADQMTDKEAFALIFKPGFSTAAKVTNVSGRGVGMDVVKTNIEKLNGVIEIDSELGKGSSFKLKIPLTLAIIQSLLVGTQEEFYAIPLASVLETVRVPIDDIYTIEGKNVLRLRDEVLSLVRLSDVFGVKQVLESGDQTYVVVIGVAESKLGIIVDTLVGQEEIVIKSMGDYLQNIQGIAGATIRGDGRVTLIIDVGAMMDMAKEIKVDIKAQLESSAKKPKEQPSDYKVLIVDDSKMDRTLMQKALEPLGVSLIEATNGVEALNIIKSGEHDIDAMLIDIEMPRMDGYTLAGEIRKYSKYRNLPLIAVTSRTSKTDRLRGVEVGMTEYITKPYSPEYLENVVRKNLKLG
For B1, the binding [4] was “binds”.

B2: Cj0980 (protein, UniProt Q0P9S2 1-422)
chain: MQNVIENFKQLCKIPHCSYETEQMKEFLSSYAKDKGFKVSVDKAGNIHAIKGKPKICLQSHYDMVCMGDAPNLEVYEENGFLRAKNSSLGADNGIGIAIMMSAMAEFENLECLFTNDEEVGLMGVNLLEHTLESKMLLNLDHESDDEIMIGCAGGVDIEASLSFNTLRKKGKIYELCAQNFKGGHSGINIIRNEKSSIKEMAKFIQENEGEIISFEGGERINSIPKHAKALVHFKDEVKSNNWIKCEFKEENEFEICDQSKKLLSLINSFTHGVRAYDENLDIVQTSINLATLRMQDNQIKFALFARSNILDGLKQVEFETLEFFKAFDFKIRSFNFYPPWEGKPNALSDMVFKALKKVSPNAKVSAIHAGLECGIIEKKQELLCASIGPNIHNPHSTDEHCEIASVEKISKVVFEVLKDNA
For B2, the binding [5] was “binds”.
